In publication PMC10279758:
Results are given in words; binding and its absence hold for the method and conditions named. In cells and extracts the contact can be indirect. Binding can be weak; no strength is given. Sequences can lack the tags named with a protein.

Target: T1, Arabidopsis thaliana Receptor-Like Protein 30, GFP-tagged (RLP30-GFP) (Arabidopsis thaliana) (UniProt Q9MA83)
T1 sequence: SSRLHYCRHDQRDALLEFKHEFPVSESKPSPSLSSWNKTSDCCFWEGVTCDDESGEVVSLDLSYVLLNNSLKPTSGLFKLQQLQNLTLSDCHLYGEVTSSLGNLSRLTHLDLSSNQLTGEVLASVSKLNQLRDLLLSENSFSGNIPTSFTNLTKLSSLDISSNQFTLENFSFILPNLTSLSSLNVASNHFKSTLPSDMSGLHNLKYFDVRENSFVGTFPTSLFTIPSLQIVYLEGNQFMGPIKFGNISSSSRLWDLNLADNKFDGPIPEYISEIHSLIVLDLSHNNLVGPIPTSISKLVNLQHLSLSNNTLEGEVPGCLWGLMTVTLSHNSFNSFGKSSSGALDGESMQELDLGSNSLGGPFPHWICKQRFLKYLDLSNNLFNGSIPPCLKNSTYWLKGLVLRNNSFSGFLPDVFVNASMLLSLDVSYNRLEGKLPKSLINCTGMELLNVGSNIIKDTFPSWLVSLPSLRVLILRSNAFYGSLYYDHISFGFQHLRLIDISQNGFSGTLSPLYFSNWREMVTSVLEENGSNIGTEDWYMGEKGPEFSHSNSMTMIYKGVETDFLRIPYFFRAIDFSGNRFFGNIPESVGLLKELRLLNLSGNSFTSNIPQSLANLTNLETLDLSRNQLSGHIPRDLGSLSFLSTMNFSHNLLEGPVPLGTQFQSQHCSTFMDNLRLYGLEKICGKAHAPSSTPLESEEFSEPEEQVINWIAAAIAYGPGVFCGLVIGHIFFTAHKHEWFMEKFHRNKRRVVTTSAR
Test: co-IP; SCP^Ss-Myc (or Cys-to-Ser mutants) and GFP-tagged RLP transiently co-expressed in N. benthamiana; leaf protein extracts on day 2; immunoprecipitation with GFP-Trap beads; immunoblotting with tag-specific antibodies

SMALL CYSTEINE-RICH PROTEIN FROM S. SCLEROTIORUM, myc-tagged (SCP^Ss-myc) (Sclerotinia sclerotiorum) (ligand)
binding: binds
